Measured values from PMC6626598.
Results are given in words; binding and its absence hold for the method and conditions named. Binding seen in cells or lysates may run through a third protein. Some entries that bind do so weakly or less than the wild type. For part of these data: Where a sequence is shown, tags or fusion partners need not be part of it. Values belong to the binder of their own block, whether it stands above or below them.

Experiments:
[1] = molecular target: T1, LATS1 (human (in MCF-7 cells)) (UniProt O95835); assay: co-IP; MCF-7 cells lysed in RIPA buffer with protease and phosphatase inhibitors; extracts pre-cleared, 2 µg of the indicated antibodies and protein G-agarose overnight at 4 °C; Western blot
T1 sequence: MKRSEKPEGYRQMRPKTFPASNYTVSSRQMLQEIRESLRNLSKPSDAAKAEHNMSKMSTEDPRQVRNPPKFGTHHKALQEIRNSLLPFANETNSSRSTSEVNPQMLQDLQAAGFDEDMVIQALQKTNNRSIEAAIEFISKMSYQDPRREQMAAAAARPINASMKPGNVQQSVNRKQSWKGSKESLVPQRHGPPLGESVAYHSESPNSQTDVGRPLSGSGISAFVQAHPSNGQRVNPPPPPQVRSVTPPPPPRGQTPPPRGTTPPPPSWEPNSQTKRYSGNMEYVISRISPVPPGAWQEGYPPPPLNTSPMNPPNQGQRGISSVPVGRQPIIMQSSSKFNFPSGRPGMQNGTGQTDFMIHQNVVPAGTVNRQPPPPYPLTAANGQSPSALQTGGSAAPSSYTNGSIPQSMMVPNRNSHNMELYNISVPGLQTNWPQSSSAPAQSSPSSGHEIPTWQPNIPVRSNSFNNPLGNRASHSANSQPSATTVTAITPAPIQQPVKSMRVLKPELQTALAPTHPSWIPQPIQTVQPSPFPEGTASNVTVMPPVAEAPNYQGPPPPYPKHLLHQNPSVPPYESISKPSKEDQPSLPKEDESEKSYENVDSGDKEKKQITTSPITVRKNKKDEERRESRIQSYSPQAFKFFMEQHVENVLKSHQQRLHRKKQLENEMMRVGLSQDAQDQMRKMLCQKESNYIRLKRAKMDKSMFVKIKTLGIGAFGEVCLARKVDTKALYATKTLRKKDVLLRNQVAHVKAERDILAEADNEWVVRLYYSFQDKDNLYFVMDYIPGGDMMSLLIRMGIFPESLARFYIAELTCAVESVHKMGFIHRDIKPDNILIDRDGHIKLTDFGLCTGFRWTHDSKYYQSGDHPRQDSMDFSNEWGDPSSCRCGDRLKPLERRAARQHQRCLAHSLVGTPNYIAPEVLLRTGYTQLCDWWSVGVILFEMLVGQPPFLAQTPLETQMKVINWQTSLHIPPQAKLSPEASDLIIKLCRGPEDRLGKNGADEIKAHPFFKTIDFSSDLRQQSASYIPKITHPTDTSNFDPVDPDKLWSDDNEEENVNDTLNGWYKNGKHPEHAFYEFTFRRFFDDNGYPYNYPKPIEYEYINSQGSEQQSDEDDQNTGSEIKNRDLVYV

[2] = molecular target: T2, GST-LATS1 deletion mutant, C-terminus (aa 701-1,130) (UniProt O95835); assay: pull-down; HERC4 co-expressed with GST-LATS1 constructs in MCF-7 cells; GST-tagged bait on GST beads (Pierce GST Protein Interaction Pull-Down Kit), prey sample at 4 °C for at least 1 h; Western blot
T2 sequence: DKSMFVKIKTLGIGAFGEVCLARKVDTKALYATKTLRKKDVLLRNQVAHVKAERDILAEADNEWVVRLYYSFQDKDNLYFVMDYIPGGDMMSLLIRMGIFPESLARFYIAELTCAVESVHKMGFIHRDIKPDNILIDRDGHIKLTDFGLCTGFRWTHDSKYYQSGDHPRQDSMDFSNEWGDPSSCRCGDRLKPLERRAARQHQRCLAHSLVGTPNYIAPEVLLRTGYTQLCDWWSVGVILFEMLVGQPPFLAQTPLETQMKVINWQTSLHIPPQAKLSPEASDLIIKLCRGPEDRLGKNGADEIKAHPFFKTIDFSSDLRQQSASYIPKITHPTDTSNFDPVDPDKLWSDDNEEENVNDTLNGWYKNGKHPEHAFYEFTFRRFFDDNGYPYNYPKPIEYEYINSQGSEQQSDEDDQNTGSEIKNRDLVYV

GST-LATS1 = molecular target: T3, GST-LATS1 (UniProt O95835); assay: as above
T3 sequence: T1 sequence

- binding [1]: binds
B1: HERC4 (enzyme, UniProt Q5GLZ8 1-1057)
chain: MLCWGNASFGQLGLGGIDEEIVLEPRKSDFFINKRVRDVGCGLRHTVFVLDDGTVYTCGCNDLGQLGHEKSRKKPEQVVALDAQNIVAVSCGEAHTLALNDKGQVYAWGLDSDGQLGLVGSEECIRVPRNIKSLSDIQIVQVACGYYHSLALSKASEVFCWGQNKYGQLGLGTDCKKQTSPQLLKSLLGIPFMQVAAGGAHSFVLTLSGAIFGWGRNKFGQLGLNDENDRYVPNLLKSLRSQKIVYICCGEDHTAALTKEGGVFTFGAGGYGQLGHNSTSHEINPRKVFELMGSIVTEIACGRQHTSAFVPSSGRIYSFGLGGNGQLGTGSTSNRKSPFTVKGNWYPYNGQCLPDIDSEEYFCVKRIFSGGDQSFSHYSSPQNCGPPDDFRCPNPTKQIWTVNEALIQKWLSYPSGRFPVEIANEIDGTFSSSGCLNGSFLAVSNDDHYRTGTRFSGVDMNAARLLFHKLIQPDHPQISQQVAASLEKNLIPKLTSSLPDVEALRFYLTLPECPLMSDSNNFTTIAIPFGTALVNLEKAPLKVLENWWSVLEPPLFLKIVELFKEVVVHLLKLYKIGIPPSERRIFNSFLHTALKVLEILHRVNEKMGQIIQYDKFYIHEVQELIDIRNDYINWVQQQAYGMDVNHGLTELADIPVTICTYPFVFDAQAKTTLLQTDAVLQMQMAIDQAHRQNVSSLFLPVIESVNPCLILVVRRENIVGDAMEVLRKTKNIDYKKPLKVIFVGEDAVDAGGVRKEFFLLIMRELLDPKYGMFRYYEDSRLIWFSDKTFEDSDLFHLIGVICGLAIYNCTIVDLHFPLALYKKLLKKKPSLDDLKELMPDVGRSMQQLLDYPEDDIEETFCLNFTITVENFGATEVKELVLNGADTAVNKQNRQEFVDAYVDYIFNKSVASLFDAFHAGFHKVCGGKVLLLFQPNELQAMVIGNTNYDWKELEKNTEYKGEYWAEHPTIKIFWEVFHELPLEKKKQFLLFLTGSDRIPILGMKSLKLVIQSTGGGEEYLPVSHTCFNLLDLPKYTEKETLRSKLIQAIDHNEGFSLI

- binding [2]: binds
- binding (GST-LATS1): binds
B2: HERC4 (expressed from a vector with human HERC4 cDNA) (enzyme, UniProt Q5GLZ8 1-1057)
chain: B1 chain
